In this test the target is T1, HA-tagged PLZF/RARA.
T1 sequence: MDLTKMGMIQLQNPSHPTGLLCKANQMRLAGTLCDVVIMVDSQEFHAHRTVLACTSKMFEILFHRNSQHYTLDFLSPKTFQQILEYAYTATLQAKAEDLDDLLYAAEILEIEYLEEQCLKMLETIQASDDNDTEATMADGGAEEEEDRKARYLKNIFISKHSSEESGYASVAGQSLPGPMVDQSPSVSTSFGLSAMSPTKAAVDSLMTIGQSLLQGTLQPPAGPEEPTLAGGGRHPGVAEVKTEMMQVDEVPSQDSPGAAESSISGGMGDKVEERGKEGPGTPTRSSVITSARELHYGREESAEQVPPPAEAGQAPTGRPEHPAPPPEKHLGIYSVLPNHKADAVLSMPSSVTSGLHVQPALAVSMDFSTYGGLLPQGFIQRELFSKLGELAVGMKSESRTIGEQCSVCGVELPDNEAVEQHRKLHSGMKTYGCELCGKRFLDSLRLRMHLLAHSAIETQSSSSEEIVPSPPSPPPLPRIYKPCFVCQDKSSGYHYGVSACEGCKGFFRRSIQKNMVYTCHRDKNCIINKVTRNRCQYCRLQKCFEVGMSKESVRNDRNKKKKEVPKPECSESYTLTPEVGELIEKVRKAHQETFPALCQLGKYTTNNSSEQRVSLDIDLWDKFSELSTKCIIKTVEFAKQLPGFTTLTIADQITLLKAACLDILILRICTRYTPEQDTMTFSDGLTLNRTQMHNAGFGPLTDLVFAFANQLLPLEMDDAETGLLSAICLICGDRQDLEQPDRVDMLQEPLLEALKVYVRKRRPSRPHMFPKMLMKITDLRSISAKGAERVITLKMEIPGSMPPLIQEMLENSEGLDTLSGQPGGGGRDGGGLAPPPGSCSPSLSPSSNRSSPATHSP
Description: co-immunoprecipitation from transfected HEK-293T cells.

Results on 1 molecule are retold here after patent US20150148403A1 (ACADEMIA SINICA, published 2015).

These are yes or no findings as the source states them, for the method shown. In cells and extracts the contact can be indirect. Some binding calls cover weakened binding; strength is not graded here. Where a sequence is shown, tags or fusion partners need not be part of it.

B1: USP37 C-terminal deletion mutant (1-700) (enzyme, not shown: small tags and cut ends)
chain: MSPLKIHGPIRIRSMQTGITKWKEGSFEIVEKENKVSLVVHYNTGGIPRIFQLSHNIKNVVLRPSGAKQSRLMLTLQDNSFLSIDKVPSKDAEEMRLFLDAVHQNRLPAAMKPSQGSGSFGAILGSRTSQKETSRQLSYSDNQASAKRGSLETKDDIPFRKVLGNPGRGSIKTVAGSGIARTIPSLTSTSTPLRSGLLENRTEKRKRMISTGSELNEDYPKENDSSSNNKAMTDPSRKYLTSSREKQLSLKQSEENRTSGLLPLQSSSFYGSRAGSKEHSSGGTNLDRTNVSSQTPSAKRSLGFLPQPVPLSVKKLRCNQDYTGWNKPRVPLSSHQQQQLQGFSNLGNTCYMNAILQSLFSLQSFANDLLKQGIPWKKIPLNALIRRFAHLLVKKDICNSETKKDLLKKVKNAISATAERFSGYMQNDAHEFLSQCLDQLKEDMEKLNKTWKTEPVSGEENSPDISATRAYTCPVITNLEFEVQHSIICKACGEIIPKREQFNDLSIDLPRRKKPLPPRSIQDSLDLFFRAEELEYSCEKCGGKCALVRHKFNRLPRVLILHLKRYSFNVALSLNNKIGQQVIIPRYLTLSSHCTENTKPPFTLGWSAHMAISRPLKASQMVNSCITSPSTPSKKFTFKSKSSLALCLDSDSEDELKRSVALSQRLCEMLGNEQQQEDLEKDSKLCPIEPDKSELENSGF
With B1, the binding entry is recorded as “binds”.
